T/C and survivor count data for 25 molecules are collected here from PubChem BioAssay AID306 (DTP/NCI, 2004).

For this assay, the system named is BDF1 mice, L1210 Methyl-GAG-resistant leukemia, survival T/C. As to the kind of experiment: NCI In Vivo Anticancer Drug Screen. Data for tumor model L1210 Leukemia resistant to Methyl-GAG; NSC 32946 (subcutaneous) in B6D2F1 (BDF1) mice. The settings on record: T/C endpoint: mean survival time, higher T/C = longer survival. As for the experimental part:
The antitumor activity of compounds was measured in mice bearing transplantable tumors. Survival or tumor size were measured and the results are expressed as the measurement made in the treated group (T) divided by the measurement made in the vehicle treated control group (C). The tumor model used in this assay is L1210 Leukemia resistant to Methyl-GAG; NSC 32946 (subcutaneous) in B6D2F1 (BDF1) mice

Setting [1] is: dose: 40.0 mg/kg/injection, schedule: Q01DX Z (ip), vehicle: carboxymethylcellulose (CMC).
[2] abbreviates: dose: 50.0 mg/kg/injection, schedule: Q01DX Z (ip), vehicle: saline.
Setting [3] is: dose: 6.25 mg/kg/injection, schedule: Q01DX Z (ip), vehicle: saline.
The mark [4] stands for this setting: dose: 100.0 mg/kg/injection, schedule: Q01DX Z (ip), vehicle: carboxymethylcellulose (CMC).
Where [5] appears, read: dose: 5.0 mg/kg/injection, schedule: Q01DX Z (ip), vehicle: carboxymethylcellulose (CMC).
Setting [6] is: dose: 100.0 mg/kg/injection, schedule: Q01DX Z (ip), vehicle: saline.
The mark [7] stands for this setting: dose: 250.0 mg/kg/injection, schedule: Q01DX Z (ip), vehicle: carboxymethylcellulose (CMC).
Setting [8] is: dose: 50.0 mg/kg/injection, schedule: Q01DX Z (ip), vehicle: carboxymethylcellulose (CMC).
Setting [9] is: dose: 800.0 mg/kg/injection, schedule: Q01DX Z (ip), vehicle: carboxymethylcellulose (CMC).
[10] abbreviates: dose: 4.0 mg/kg/injection, schedule: Q01DX Z (ip), vehicle: saline.

The list shows only some results of the screen, not a fair sample: it gathers tests that were run many times, whatever their T/C, doses with no T/C, and many T/C values between a quarter and a half above the control. Other doses and runs of a compound stand elsewhere. T/C: endpoint of the treated group in % of that of the vehicle group. Some doses have a count of surviving animals in place of a T/C: the source holds a T/C of zero for them, seemingly a mark for toxic or unscored doses. Some doses without a T/C left all or most animals alive at the check, yet need not have been tolerated: the source hardly ever lists a survival T/C far under the control, and the zero likely stands for such cases as well. Survivors were counted at the toxicity check, usually on the fifth day, unless a day is given; later deaths do not show. Schedule codes are those of the source, taken here to give the interval after Q, in days (D) or hours (H), and the number of doses after X. Some schedules carry Z or #; the key to these is not given. Some doses were run more than once; the results are listed from low to high. Where survival is the endpoint, the PubChem record calls one and a half times the control and up active, and a quarter to a half above the control has no call in these data; cut-offs in other NCI protocols can differ. Some T/C values carry the count of animals alive at the toxicity check (mostly the fifth day); without a count, all were alive then.

Regarding `O=c1cnn(C2OC(CO)C(O)C2O)c(=O)[nH]1` (configuration not stated), the T/C is, setting by setting: (dose: 31.25 mg/kg/injection, schedule: Q01DX Z (ip), vehicle: water) 129 % of control; (dose: 62.5 mg/kg/injection, schedule: Q01DX Z (ip), vehicle: water) 142 % of control; (dose: 125.0 mg/kg/injection, schedule: Q01DX Z (ip), vehicle: water) 136 and 137 % of control; (dose: 250.0 mg/kg/injection, schedule: Q01DX Z (ip), vehicle: water) 131 and 142 % of control; (dose: 500.0 mg/kg/injection, schedule: Q01DX Z (ip), vehicle: water) 125 [5 of 6 alive] and 140 % of control; (dose: 1000.0 mg/kg/injection, schedule: Q01DX Z (ip), vehicle: water) 129 % of control.

In the case of `S=P(N1CC1)(N1CC1)N1CC1`, the T/C (dose: 1.25 mg/kg/injection, schedule: Q01DX Z (ip), vehicle: saline) is 142 % of control and the T/C (dose: 2.5 mg/kg/injection, schedule: Q01DX Z (ip), vehicle: saline) is 136 % of control.

Take `CC(CCC(C)OS(C)(=O)=O)OS(C)(=O)=O` (configuration not stated): under setting [1], the survivor count was 4 of 6.

With `CN(N=O)C(N)=O`, the survivor count under setting [2] is listed as 6 of 6.

For the molecule `C[C@]12CCC(=O)C=C1CC[C@@H]1[C@@H]2C(=O)C[C@@]2(C)[C@H]1CC[C@]2(O)C(=O)CO`, the T/C reads like this: (dose: 125.0 mg/kg/injection, schedule: Q01DX Z (sc), vehicle: steroid suspending solution) 145 % of control; (dose: 200.0 mg/kg/injection, schedule: Q01DX Z (sc), vehicle: steroid suspending solution) 146 % of control; (dose: 250.0 mg/kg/injection, schedule: Q01DX Z (sc), vehicle: steroid suspending solution) 142 % of control; (dose: 400.0 mg/kg/injection, schedule: Q01DX Z (sc), vehicle: steroid suspending solution) 125 % of control; (dose: 500.0 mg/kg/injection, schedule: Q01DX Z (sc), vehicle: steroid suspending solution) 127 % of control.

Take `N=[N+]=CC(=O)OCC(N)C(=O)O` (configuration not stated): the T/C under setting [3] was 140 % of control and the T/C (dose: 9.4 mg/kg/injection, schedule: Q01DX Z (ip), vehicle: saline) is 144 % of control. Moreover, under setting [2], the survivor count is reported as 6 of 6.

For `Nc1ncnc2[nH]ncc12`, the survivor count is 5 of 6 under setting [4] and 0 of 6 (dose: 200.0 mg/kg/injection, schedule: Q01DX Z (ip), vehicle: carboxymethylcellulose (CMC)).

On to `Cc1cc(N(CCCl)CCCl)ccc1N=Nc1ccccc1C(=O)O`, for which the survivor count (dose: 7.5 mg/kg/injection, schedule: Q01DX Z (ip), vehicle: carboxymethylcellulose (CMC)) is listed as 6 of 6; the survivor count (dose: 60.0 mg/kg/injection, schedule: Q01DX Z (ip), vehicle: carboxymethylcellulose (CMC)) is listed as 5 of 6; the survivor count (dose: 120.0 mg/kg/injection, schedule: Q01DX Z (ip), vehicle: carboxymethylcellulose (CMC)) is 6 of 6; the survivor count (dose: 240.0 mg/kg/injection, schedule: Q01DX Z (ip), vehicle: carboxymethylcellulose (CMC)) was 3 of 6.

`Nc1ncnc2c1ccn2C1OC(CO)C(O)C1O` (configuration not stated): the survivor count by setting is: (dose: 2.5 mg/kg/injection, schedule: Q01DX Z (ip), vehicle: carboxymethylcellulose (CMC)) 3 of 6; under setting [5], 3 of 6.

With `CN(N=O)C(=O)NC(C=O)C(O)C(O)C(O)CO` (configuration not stated), the T/C under setting [6] is 130 % of control.

In the case of `COS(C)(=O)=O`, the survivor count is recorded as 5 of 6 (dose: 100.0 mg/kg/injection, schedule: Q01DX Z (ip), vehicle: water) and 0 of 6 (dose: 200.0 mg/kg/injection, schedule: Q01DX Z (ip), vehicle: water).

For the molecule `C=CC(CN1CC1)OC(C)=O` (configuration not stated), the T/C (dose: 3.8 mg/kg/injection, schedule: Q01DX Z (ip), vehicle: carboxymethylcellulose (CMC)) is 129 % of control. Moreover, the survivor count was 5 of 6 (dose: 15.0 mg/kg/injection, schedule: Q01DX Z (ip), vehicle: carboxymethylcellulose (CMC)) and 3 of 6 (dose: 30.0 mg/kg/injection, schedule: Q01DX Z (ip), vehicle: carboxymethylcellulose (CMC)).

Regarding `O=NN(CCCl)C(=O)NCCCl`, the T/C (dose: 0.5 mg/kg/injection, schedule: Q01DX Z (ip), vehicle: saline) is 125 % of control. Further, the survivor count (dose: 64.0 mg/kg/injection, schedule: Q01DX Z (ip), vehicle: saline) is listed as 5 of 6.

For `Clc1ncnc2nc[nH]c12`, under setting [7], the survivor count is given as 6 of 6.

Regarding `S=P(N1CCOCC1)(N1CC1)N1CC1`, under setting [8], the survivor count was 6 of 6.

`O=c1[nH]c(=O)n(C2CC(O)C(CO)O2)cc1F` (configuration not stated): the T/C runs as follows: under setting [8], 125 % of control; under setting [4], 138 % of control. The survivor count was 6 of 6 (dose: 400.0 mg/kg/injection, schedule: Q01DX Z (ip), vehicle: carboxymethylcellulose (CMC)) and 6 of 6 under setting [9].

Turning to `NC(=O)N(CCCl)N=O`, the survivor count (dose: 16.0 mg/kg/injection, schedule: Q01DX Z (ip), vehicle: carboxymethylcellulose (CMC)) is listed as 6 of 6; the survivor count (dose: 32.0 mg/kg/injection, schedule: Q01DX Z (ip), vehicle: carboxymethylcellulose (CMC)) was 4 of 6; the survivor count (dose: 64.0 mg/kg/injection, schedule: Q01DX Z (ip), vehicle: carboxymethylcellulose (CMC)) was 1 of 6.

As for `NC(Cc1ccc(N(CCCl)CCCl)cc1)C(=O)O` (configuration not stated), the T/C is, setting by setting: under setting [5], 126 % of control; (dose: 10.0 mg/kg/injection, schedule: Q01DX Z (ip), vehicle: carboxymethylcellulose (CMC)) 127 % of control. Moreover, the survivor count under setting [1] is recorded as 4 of 6.

On to `CC(=O)O[C@]1(C(C)=O)CC[C@H]2[C@@H]3C[C@H](C)C4=CC(=O)C=C[C@]4(C)[C@@]3(F)[C@@H](O)C[C@@]21C`, for which the T/C (dose: 80.0 mg/kg/injection, schedule: Q01DX Z (sc), vehicle: steroid suspending solution) is 125 % of control.

On to `O=C(Nc1ccc(NC2=NCCN2)cc1)c1ccc(C(=O)Nc2ccc(NC3=NCCN3)cc2)cc1`, for which the T/C was 143 % of control under setting [10] and 138 % of control (dose: 16.0 mg/kg/injection, schedule: Q01DX Z (ip), vehicle: saline).

`O=C(Nc1ccc(C2=NCCN2)cc1)c1ccc(C(=O)Nc2ccc(C3=NCCN3)cc2)cc1`: the survivor count under setting [9] is 2 of 6.

On to `O=c1[nH]c(=O)n(C2CC(O)C(CO)O2)cc1Br` (configuration not stated), for which the T/C under setting [7] was 130 % of control.

Consider `O=c1[nH]cc(F)c(=O)[nH]1`, for which the T/C runs as follows: under setting [3], 136 % of control; (dose: 12.5 mg/kg/injection, schedule: Q01DX Z (ip), vehicle: saline) 97 [5 of 6 alive], 108, 116, 184 % of control; (dose: 25.0 mg/kg/injection, schedule: Q01DX Z (ip), vehicle: saline) 125, 130, 153, 185 % of control; under setting [2], 95 [5 of 6 alive], 101, 121, 198 % of control. Besides, the survivor count under setting [6] was 3 of 6 and 6 of 6; the survivor count (dose: 200.0 mg/kg/injection, schedule: Q01DX Z (ip), vehicle: saline) is given as 6 of 6.

Take `C1CN1c1nc(N2CC2)nc(N2CC2)n1`: the T/C (dose: 1.0 mg/kg/injection, schedule: Q01DX Z (ip), vehicle: saline) is 133 % of control. Moreover, the survivor count was 6 of 6 (dose: 2.0 mg/kg/injection, schedule: Q01DX Z (ip), vehicle: saline); 6 of 6 under setting [10]; 6 of 6 (dose: 8.0 mg/kg/injection, schedule: Q01DX Z (ip), vehicle: saline).

With `CN(C)CC(=O)c1ccc(O)c(O)c1`, the survivor count (dose: 1000.0 mg/kg/injection, schedule: Q01DX Z (ip), vehicle: saline) is 0 of 6.
